The supplement of paper PMC12823440, “Inhibitors supercharge kinase turnover through native proteolytic circuits” (Nature, 2025)
Structures can show the parent of a compound that is named as a salt. The list shows a part of the results. The calls rarely recur for the same compound in another form.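 Kinases were expressed as nanoluciferase fusions in K562 cells and luminescence was read every 4 h between 2 and 18 h as percent of control, DMSO set to 100% and a positive control to 0%. A time point counts as decreased when the signal drops significantly (2 sigma). The hit call is the authors' own, does not follow from the count of time points alone, and its rule is not shown.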

Sequences of proteins named here, by UniProt entry; tags and fusion partners are left off. A change or cut given only in a name is not applied to a line headed by its entry.
UniProt P48729: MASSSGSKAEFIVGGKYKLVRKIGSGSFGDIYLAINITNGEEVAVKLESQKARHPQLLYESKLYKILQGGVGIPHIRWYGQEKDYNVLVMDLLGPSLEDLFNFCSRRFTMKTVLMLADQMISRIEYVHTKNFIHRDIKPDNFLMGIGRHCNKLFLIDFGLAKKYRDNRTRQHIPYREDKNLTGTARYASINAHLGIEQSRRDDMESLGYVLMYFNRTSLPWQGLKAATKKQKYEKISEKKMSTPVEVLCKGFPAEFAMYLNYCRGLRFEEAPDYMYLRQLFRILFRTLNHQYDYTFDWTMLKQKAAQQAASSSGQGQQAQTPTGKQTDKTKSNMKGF
UniProt P48730: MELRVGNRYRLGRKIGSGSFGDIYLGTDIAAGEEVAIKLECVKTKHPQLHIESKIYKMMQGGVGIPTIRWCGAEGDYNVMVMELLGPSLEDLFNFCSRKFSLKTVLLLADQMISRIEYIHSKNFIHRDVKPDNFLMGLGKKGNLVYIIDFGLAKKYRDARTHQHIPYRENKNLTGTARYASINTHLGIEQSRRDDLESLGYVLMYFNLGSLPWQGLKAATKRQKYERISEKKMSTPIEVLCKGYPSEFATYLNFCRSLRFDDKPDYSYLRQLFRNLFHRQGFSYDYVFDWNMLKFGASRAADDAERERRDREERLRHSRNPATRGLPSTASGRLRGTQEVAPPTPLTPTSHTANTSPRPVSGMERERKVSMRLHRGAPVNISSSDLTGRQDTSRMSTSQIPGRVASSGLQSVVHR
UniProt Q9Y463, whole entry, looked up: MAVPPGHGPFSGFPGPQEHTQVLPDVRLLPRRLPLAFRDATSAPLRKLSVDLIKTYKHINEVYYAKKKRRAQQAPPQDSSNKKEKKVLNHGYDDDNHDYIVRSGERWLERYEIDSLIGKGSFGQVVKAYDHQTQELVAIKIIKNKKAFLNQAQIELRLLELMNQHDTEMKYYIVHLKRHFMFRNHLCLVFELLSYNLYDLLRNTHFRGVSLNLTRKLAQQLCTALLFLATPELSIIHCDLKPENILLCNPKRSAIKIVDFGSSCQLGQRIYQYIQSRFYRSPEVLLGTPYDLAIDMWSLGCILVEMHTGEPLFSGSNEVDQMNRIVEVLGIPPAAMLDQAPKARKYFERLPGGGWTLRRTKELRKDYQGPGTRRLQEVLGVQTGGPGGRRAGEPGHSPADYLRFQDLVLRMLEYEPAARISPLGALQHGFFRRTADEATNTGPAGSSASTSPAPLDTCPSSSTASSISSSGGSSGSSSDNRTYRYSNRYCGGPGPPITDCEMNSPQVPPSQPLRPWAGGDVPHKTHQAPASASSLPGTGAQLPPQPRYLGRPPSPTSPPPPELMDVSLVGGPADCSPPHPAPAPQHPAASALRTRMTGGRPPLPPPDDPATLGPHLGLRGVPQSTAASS
UniProt Q92630: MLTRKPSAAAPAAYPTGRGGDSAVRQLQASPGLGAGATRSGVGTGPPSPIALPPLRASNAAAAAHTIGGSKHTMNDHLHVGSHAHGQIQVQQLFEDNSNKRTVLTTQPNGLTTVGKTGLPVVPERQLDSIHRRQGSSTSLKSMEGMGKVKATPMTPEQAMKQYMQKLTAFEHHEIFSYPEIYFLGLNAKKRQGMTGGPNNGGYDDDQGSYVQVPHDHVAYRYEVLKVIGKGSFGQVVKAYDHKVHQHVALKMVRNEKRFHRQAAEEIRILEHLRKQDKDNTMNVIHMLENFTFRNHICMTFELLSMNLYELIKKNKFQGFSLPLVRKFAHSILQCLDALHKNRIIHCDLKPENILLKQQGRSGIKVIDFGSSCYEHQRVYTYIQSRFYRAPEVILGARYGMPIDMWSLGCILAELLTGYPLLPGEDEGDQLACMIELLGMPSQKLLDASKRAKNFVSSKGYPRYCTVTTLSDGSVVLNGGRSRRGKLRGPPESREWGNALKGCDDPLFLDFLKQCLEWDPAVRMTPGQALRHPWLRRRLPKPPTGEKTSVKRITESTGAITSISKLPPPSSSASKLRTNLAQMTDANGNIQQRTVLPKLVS
UniProt P29317, whole entry: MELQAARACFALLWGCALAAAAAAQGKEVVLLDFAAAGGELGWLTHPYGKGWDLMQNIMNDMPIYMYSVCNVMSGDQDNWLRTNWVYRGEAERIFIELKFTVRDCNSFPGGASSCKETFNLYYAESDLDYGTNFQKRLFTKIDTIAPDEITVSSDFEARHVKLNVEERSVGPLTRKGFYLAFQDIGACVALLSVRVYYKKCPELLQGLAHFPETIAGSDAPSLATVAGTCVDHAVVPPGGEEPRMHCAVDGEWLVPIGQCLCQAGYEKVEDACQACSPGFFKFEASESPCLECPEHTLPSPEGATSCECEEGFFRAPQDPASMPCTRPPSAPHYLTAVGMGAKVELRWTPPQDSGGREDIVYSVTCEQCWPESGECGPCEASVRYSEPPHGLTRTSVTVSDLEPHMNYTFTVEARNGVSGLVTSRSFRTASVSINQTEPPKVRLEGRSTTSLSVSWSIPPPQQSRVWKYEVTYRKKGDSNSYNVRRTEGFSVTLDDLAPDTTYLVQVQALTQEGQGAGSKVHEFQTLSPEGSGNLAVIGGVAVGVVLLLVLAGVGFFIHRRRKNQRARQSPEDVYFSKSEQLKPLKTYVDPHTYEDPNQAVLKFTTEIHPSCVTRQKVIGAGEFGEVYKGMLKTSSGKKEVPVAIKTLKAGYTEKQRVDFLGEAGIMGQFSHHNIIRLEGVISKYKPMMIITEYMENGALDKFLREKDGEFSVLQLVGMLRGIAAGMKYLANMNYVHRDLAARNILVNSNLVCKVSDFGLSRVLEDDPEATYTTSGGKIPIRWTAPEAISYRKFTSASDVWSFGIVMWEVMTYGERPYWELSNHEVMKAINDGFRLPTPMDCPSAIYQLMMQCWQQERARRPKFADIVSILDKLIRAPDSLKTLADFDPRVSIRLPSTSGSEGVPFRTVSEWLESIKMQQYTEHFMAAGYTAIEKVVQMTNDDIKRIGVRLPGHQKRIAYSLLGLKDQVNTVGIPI
UniProt Q15303, whole entry R711C: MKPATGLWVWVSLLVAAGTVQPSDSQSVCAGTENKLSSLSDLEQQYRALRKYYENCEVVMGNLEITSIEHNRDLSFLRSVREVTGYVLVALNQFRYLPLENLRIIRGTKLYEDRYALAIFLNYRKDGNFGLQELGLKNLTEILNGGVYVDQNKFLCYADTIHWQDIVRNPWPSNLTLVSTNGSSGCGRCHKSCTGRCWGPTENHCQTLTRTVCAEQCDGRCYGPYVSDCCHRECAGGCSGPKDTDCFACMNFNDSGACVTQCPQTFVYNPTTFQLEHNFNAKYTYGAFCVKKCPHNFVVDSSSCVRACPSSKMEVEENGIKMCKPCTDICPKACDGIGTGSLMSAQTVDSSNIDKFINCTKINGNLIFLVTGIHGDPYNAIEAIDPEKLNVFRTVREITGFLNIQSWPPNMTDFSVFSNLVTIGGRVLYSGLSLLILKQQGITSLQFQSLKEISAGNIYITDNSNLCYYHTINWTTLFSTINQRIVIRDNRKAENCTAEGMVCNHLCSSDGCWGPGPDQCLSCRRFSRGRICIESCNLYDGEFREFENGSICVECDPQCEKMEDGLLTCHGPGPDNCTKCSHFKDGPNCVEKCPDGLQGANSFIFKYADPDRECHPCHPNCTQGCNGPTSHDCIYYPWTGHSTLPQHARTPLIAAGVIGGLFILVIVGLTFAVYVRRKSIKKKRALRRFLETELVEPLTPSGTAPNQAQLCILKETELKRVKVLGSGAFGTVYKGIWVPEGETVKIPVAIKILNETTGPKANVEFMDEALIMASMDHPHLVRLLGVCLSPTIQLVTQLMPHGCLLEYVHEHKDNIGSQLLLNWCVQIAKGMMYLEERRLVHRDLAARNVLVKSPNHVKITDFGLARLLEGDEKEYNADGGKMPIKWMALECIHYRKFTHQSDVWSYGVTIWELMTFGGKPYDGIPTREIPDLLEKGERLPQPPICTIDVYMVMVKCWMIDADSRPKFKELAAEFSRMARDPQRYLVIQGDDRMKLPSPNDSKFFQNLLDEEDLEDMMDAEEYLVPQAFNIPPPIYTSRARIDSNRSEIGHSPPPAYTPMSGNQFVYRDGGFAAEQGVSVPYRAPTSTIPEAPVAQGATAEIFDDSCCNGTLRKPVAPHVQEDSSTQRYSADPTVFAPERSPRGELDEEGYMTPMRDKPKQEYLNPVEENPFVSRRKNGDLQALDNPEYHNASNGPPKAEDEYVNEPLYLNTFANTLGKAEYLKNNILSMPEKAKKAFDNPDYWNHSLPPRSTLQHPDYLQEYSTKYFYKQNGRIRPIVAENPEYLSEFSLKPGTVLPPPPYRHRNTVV
UniProt P11362, whole entry, looked up: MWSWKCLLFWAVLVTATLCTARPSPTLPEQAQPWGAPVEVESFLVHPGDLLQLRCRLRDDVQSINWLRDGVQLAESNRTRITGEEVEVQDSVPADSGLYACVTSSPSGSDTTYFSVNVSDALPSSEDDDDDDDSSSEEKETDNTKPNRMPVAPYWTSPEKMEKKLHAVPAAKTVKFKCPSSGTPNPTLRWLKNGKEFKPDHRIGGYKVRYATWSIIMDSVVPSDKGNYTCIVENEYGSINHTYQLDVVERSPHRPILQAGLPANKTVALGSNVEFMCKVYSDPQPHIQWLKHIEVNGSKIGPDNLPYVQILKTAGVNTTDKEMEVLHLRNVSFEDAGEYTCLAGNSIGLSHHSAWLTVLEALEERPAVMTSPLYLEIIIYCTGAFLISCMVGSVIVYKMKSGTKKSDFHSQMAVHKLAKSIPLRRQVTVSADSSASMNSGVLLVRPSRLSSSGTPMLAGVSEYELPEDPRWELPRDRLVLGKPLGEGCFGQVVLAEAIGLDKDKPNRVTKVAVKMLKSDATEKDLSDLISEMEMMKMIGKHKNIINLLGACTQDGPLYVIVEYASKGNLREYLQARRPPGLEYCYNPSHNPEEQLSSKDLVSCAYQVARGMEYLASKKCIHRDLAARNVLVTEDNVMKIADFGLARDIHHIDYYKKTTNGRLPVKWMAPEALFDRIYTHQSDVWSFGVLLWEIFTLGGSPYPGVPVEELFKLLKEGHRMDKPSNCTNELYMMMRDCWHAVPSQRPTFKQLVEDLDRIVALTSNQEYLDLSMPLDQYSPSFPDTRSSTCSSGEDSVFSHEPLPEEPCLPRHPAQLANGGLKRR
UniProt P21802, whole entry, looked up: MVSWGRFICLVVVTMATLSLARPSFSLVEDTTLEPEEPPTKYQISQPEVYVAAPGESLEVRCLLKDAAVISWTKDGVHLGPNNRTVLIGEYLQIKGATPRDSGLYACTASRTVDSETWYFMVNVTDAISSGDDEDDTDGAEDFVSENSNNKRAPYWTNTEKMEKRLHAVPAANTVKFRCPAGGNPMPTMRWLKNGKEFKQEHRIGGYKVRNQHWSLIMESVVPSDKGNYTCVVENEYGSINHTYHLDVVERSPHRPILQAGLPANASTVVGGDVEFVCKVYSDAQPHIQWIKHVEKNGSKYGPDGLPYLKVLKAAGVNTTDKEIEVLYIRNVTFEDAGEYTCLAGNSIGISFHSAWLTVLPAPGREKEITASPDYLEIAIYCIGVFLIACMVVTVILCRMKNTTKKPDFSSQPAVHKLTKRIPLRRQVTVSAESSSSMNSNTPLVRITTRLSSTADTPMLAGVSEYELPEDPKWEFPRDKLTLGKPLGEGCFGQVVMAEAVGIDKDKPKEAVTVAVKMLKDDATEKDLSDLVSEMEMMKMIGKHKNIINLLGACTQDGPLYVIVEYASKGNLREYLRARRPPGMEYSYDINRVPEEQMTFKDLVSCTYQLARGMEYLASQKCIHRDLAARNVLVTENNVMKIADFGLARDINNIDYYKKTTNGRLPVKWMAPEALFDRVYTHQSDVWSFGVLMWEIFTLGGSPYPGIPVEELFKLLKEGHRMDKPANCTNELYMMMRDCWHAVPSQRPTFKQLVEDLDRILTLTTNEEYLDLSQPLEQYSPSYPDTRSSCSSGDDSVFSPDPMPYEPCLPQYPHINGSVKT

Columns and labels:
Test in all cases: number of time points (of 5) at which kinase-Nluc abundance scored as decreased, DMSO-normalised (count); higher = more persistent destabilization
Details in all cases: K562; 2-18 h
CSNK1A1 = CSNK1A1 (UniProt P48729)
CSNK1D = CSNK1D (UniProt P48730)
DDR1 = DDR1 (UniProt Q08345)
DYRK1B = DYRK1B (UniProt Q9Y463)
DYRK2 = DYRK2 (UniProt Q92630)
EGFR = EGFR (UniProt P00533)
EGFR_G719S = EGFR_G719S (UniProt P00533)
EGFR_G719S_T790M = EGFR_G719S_T790M (UniProt P00533)
EGFR_L718V = EGFR_L718V (UniProt P00533)
EGFR_L858R = EGFR_L858R (UniProt P00533)
EGFR_L861Q = EGFR_L861Q (UniProt P00533)
EGFR_T790M = EGFR_T790M (UniProt P00533)
EPHA2 = EPHA2 (UniProt P29317)
ERBB3 = ERBB3 (UniProt P21860)
[1] = target: ERBB4_R711C (clone: ERBB4_mut) (UniProt Q15303)
ERN1 = ERN1 (UniProt O75460)
FGFR1 = FGFR1 (UniProt P11362)
FGFR2 = FGFR2 (UniProt P21802)
FGFR3 = FGFR3 (UniProt P22607)
FGR = FGR (UniProt P09769)

## COc1ccc(C2CC(c3ccc(Cl)cc3)=NN2c2nc(-c3ccncc3)cs2)cc1 (stereo not given) [mTOR inhibitor-8] (10 µM)
CSNK1A1
  number of time points: 0
CSNK1D
  number of time points: 0
DDR1
  number of time points: 0
DYRK1B
  number of time points: 0
DYRK2
  number of time points: 0
EGFR
  number of time points: 0
EGFR_G719S
  number of time points: 0
EGFR_G719S_T790M
  number of time points: 0
EGFR_L718V
  number of time points: 0
EGFR_L858R
  number of time points: 0
EGFR_L861Q
  number of time points: 0
EGFR_T790M
  number of time points: 0
EPHA2
  number of time points: 0
ERBB3
  number of time points: 0
[1]
  number of time points: 0
ERN1
  number of time points: 0
FGFR1
  number of time points: 0
FGFR2
  number of time points: 0
FGFR3
  number of time points: 0
FGR
  number of time points: 0

## C[C@]1(O)C[C@@](N)(c2ccc(-c3nc4n(c3-c3ccccc3)COc3ccncc3-4)cc2)C1 [TAS-117 (hydrochloride)] (10 µM)
CSNK1A1
  number of time points: 0
CSNK1D
  number of time points: 0
DDR1
  number of time points: 0
DYRK1B
  number of time points: 0
DYRK2
  number of time points: 0
EGFR
  number of time points: 0
EGFR_G719S
  number of time points: 0
EGFR_G719S_T790M
  number of time points: 0
EGFR_L718V
  number of time points: 0
EGFR_L858R
  number of time points: 0
EGFR_L861Q
  number of time points: 0
EGFR_T790M
  number of time points: 0
EPHA2
  number of time points: 0
ERBB3
  number of time points: 0
[1]
  number of time points: 0
ERN1
  number of time points: 0
FGFR1
  number of time points: 0
FGFR2
  number of time points: 0
FGFR3
  number of time points: 0
FGR
  number of time points: 0

## Cn1sc(=O)n(Cc2ccccc2)c1=O (10 µM)
CSNK1A1
  number of time points: 0
CSNK1D
  number of time points: 0
DDR1
  number of time points: 0
DYRK1B
  number of time points: 0
DYRK2
  number of time points: 0
EGFR
  number of time points: 0
EGFR_G719S
  number of time points: 0
EGFR_G719S_T790M
  number of time points: 0
EGFR_L718V
  number of time points: 0
EGFR_L858R
  number of time points: 0
EGFR_L861Q
  number of time points: 0
EGFR_T790M
  number of time points: 0
EPHA2
  number of time points: 0
ERBB3
  number of time points: 0
[1]
  number of time points: 0
ERN1
  number of time points: 0
FGFR1
  number of time points: 0
FGFR2
  number of time points: 0
FGFR3
  number of time points: 0
FGR
  number of time points: 0

## COc1ccc(F)cc1C(=O)NCc1ccc(-c2nn([C@@H](C)C(F)(F)F)c(N)c2C(N)=O)cc1 [Pirtobrutinib] (10 µM)
CSNK1A1
  number of time points: 0
CSNK1D
  number of time points: 0
DDR1
  number of time points: 0
DYRK1B
  number of time points: 0
DYRK2
  number of time points: 0
EGFR
  number of time points: 0
EGFR_G719S
  number of time points: 0
EGFR_G719S_T790M
  number of time points: 0
EGFR_L718V
  number of time points: 0
EGFR_L858R
  number of time points: 0
EGFR_L861Q
  number of time points: 0
EGFR_T790M
  number of time points: 0
EPHA2
  number of time points: 0
ERBB3
  number of time points: 0
[1]
  number of time points: 1
ERN1
  number of time points: 0
FGFR1
  number of time points: 0
FGFR2
  number of time points: 0
FGFR3
  number of time points: 0
FGR
  number of time points: 0

## N#Cc1c[nH]c2ccc(-c3ccc(-c4c(O)cccc4O)cc3)cc12 (10 µM)
CSNK1A1
  number of time points: 0
CSNK1D
  number of time points: 0
DDR1
  number of time points: 0
DYRK1B
  number of time points: 0
DYRK2
  number of time points: 0
EGFR
  number of time points: 0
EGFR_G719S
  number of time points: 0
EGFR_G719S_T790M
  number of time points: 0
EGFR_L718V
  number of time points: 0
EGFR_L858R
  number of time points: 0
EGFR_L861Q
  number of time points: 0
EGFR_T790M
  number of time points: 0
EPHA2
  number of time points: 0
ERBB3
  number of time points: 0
[1]
  number of time points: 0
ERN1
  number of time points: 0
FGFR1
  number of time points: 0
FGFR2
  number of time points: 0
FGFR3
  number of time points: 0
FGR
  number of time points: 0

## CC(C)(C)c1ccc(C(=O)Nc2cn3cc(-n4ccnc4)ccc3n2)cc1 (10 µM)
CSNK1A1
  number of time points: 0
CSNK1D
  number of time points: 0
DDR1
  number of time points: 0
DYRK1B
  number of time points: 0
DYRK2
  number of time points: 0
EGFR
  number of time points: 0
EGFR_G719S
  number of time points: 0
EGFR_G719S_T790M
  number of time points: 0
EGFR_L718V
  number of time points: 0
EGFR_L858R
  number of time points: 0
EGFR_L861Q
  number of time points: 0
EGFR_T790M
  number of time points: 0
EPHA2
  number of time points: 0
ERBB3
  number of time points: 0
[1]
  number of time points: 0
ERN1
  number of time points: 0
FGFR1
  number of time points: 0
FGFR2
  number of time points: 0
FGFR3
  number of time points: 0
FGR
  number of time points: 0

## O=C(Nc1nccs1)C(c1cc(F)ccc1O)N1Cc2ccccc2C1=O (stereo not given) (10 µM)
CSNK1A1
  number of time points: 0
CSNK1D
  number of time points: 0
DDR1
  number of time points: 0
DYRK1B
  number of time points: 0
DYRK2
  number of time points: 0
EGFR
  number of time points: 0
EGFR_G719S
  number of time points: 0
EGFR_G719S_T790M
  number of time points: 0
EGFR_L718V
  number of time points: 0
EGFR_L858R
  number of time points: 0
EGFR_L861Q
  number of time points: 0
EGFR_T790M
  number of time points: 0
EPHA2
  number of time points: 0
ERBB3
  number of time points: 0
[1]
  number of time points: 0
ERN1
  number of time points: 0
FGFR1
  number of time points: 0
FGFR2
  number of time points: 0
FGFR3
  number of time points: 0
FGR
  number of time points: 0

## Cn1cc(C2=C(c3c4n(c5ccccc35)CCC(CN)C4)C(=O)NC2=O)c2ccccc21 (stereo not given) [Bisindolylmaleimide X (hydrochloride)] (2.5 µM)
CSNK1A1
  number of time points: 0
CSNK1D
  number of time points: 0
DDR1
  number of time points: 0
DYRK1B
  number of time points: 0
DYRK2
  number of time points: 0
EGFR
  number of time points: 0
EGFR_G719S
  number of time points: 0
EGFR_G719S_T790M
  number of time points: 0
EGFR_L718V
  number of time points: 0
EGFR_L858R
  number of time points: 0
EGFR_L861Q
  number of time points: 0
EGFR_T790M
  number of time points: 0
EPHA2
  number of time points: 0
ERBB3
  number of time points: 0
[1]
  number of time points: 0
ERN1
  number of time points: 0
FGFR1
  number of time points: 0
FGFR2
  number of time points: 0
FGFR3
  number of time points: 0
FGR
  number of time points: 0

## CN1CCC(c2ccccc2CC(C)(C)Nc2nc(N3CCOCC3)nc(-n3c(S(C)(=O)=O)nc4ccccc43)n2)CC1 (10 µM)
CSNK1A1
  number of time points: 0
CSNK1D
  number of time points: 0
DDR1
  number of time points: 0
DYRK1B
  number of time points: 0
DYRK2
  number of time points: 0
EGFR
  number of time points: 0
EGFR_G719S
  number of time points: 0
EGFR_G719S_T790M
  number of time points: 0
EGFR_L718V
  number of time points: 0
EGFR_L858R
  number of time points: 0
EGFR_L861Q
  number of time points: 0
EGFR_T790M
  number of time points: 0
EPHA2
  number of time points: 0
ERBB3
  number of time points: 0
[1]
  number of time points: 0
ERN1
  number of time points: 0
FGFR1
  number of time points: 0
FGFR2
  number of time points: 0
FGFR3
  number of time points: 0
FGR
  number of time points: 0

## CC(C)n1nc(C#Cc2ccccc2)c2c(N)ncnc21 (10 µM)
CSNK1A1
  number of time points: 0
CSNK1D
  number of time points: 0
DDR1
  number of time points: 0
DYRK1B
  number of time points: 1
DYRK2
  number of time points: 3
EGFR
  number of time points: 0
EGFR_G719S
  number of time points: 3
EGFR_G719S_T790M
  number of time points: 0
EGFR_L718V
  number of time points: 0
EGFR_L858R
  number of time points: 0
EGFR_L861Q
  number of time points: 2
EGFR_T790M
  number of time points: 0
EPHA2
  number of time points: 0
ERBB3
  number of time points: 3
[1]
  number of time points: 0
ERN1
  number of time points: 0
FGFR1
  number of time points: 0
FGFR2
  number of time points: 3
FGFR3
  number of time points: 0
FGR
  number of time points: 0

## CN(C/C=C/C(=O)Nc1ccc(C(=O)Nc2cccc(Nc3ncc(Cl)c(-c4c[nH]c5ccccc45)n3)c2)cc1)CCCNC(=O)NCCOCCOCCOCCNC(=O)CCCC[C@@H]1SC[C@@H]2NC(=O)N[C@@H]21 (2.5 µM)
CSNK1A1
  number of time points: 0
CSNK1D
  number of time points: 0
DDR1
  number of time points: 0
DYRK1B
  number of time points: 0
DYRK2
  number of time points: 0
EGFR
  number of time points: 1
EGFR_G719S
  number of time points: 2
EGFR_G719S_T790M
  number of time points: 1
EGFR_L718V
  number of time points: 1
EGFR_L858R
  number of time points: 2
EGFR_L861Q
  number of time points: 2
EGFR_T790M
  number of time points: 1
EPHA2
  number of time points: 1
ERBB3
  number of time points: 1
[1]
  number of time points: 2
ERN1
  number of time points: 1
FGFR1
  number of time points: 0
FGFR2
  number of time points: 2
FGFR3
  number of time points: 0
FGR
  number of time points: 0

## O=C1c2cccc(O)c2C(=O)c2c(O)cccc21 [Danthron] (10 µM)
CSNK1A1
  number of time points: 0
CSNK1D
  number of time points: 0
DDR1
  number of time points: 0
DYRK1B
  number of time points: 0
DYRK2
  number of time points: 0
EGFR
  number of time points: 0
EGFR_G719S
  number of time points: 0
EGFR_G719S_T790M
  number of time points: 0
EGFR_L718V
  number of time points: 0
EGFR_L858R
  number of time points: 0
EGFR_L861Q
  number of time points: 0
EGFR_T790M
  number of time points: 0
EPHA2
  number of time points: 0
ERBB3
  number of time points: 0
[1]
  number of time points: 0
ERN1
  number of time points: 0
FGFR1
  number of time points: 0
FGFR2
  number of time points: 0
FGFR3
  number of time points: 0
FGR
  number of time points: 0
